Measured values published in article PMC7264852, “Structural and Hydrodynamic Characterization of Dimeric Human Oligoadenylate Synthetase 2” (Biophysical Journal, 2020).
These are yes or no findings as the source states them, for the method shown. In cells and extracts the contact can be indirect. Some results given as binding are weak or reduced against the parent protein; the word gives no strength. Tags and fused reporters may be left off the sequences shown. One block for each binder: values may come before it.

Experiments:
[1] = target: T1, His-tagged OAS2 (recombinant human 2′-5′-oligoadenylate synthetase 2, wild type) (human) (UniProt P29728); assay: co-IP; HEK293T co-transfected with FLAG-OAS2 and HIS-OAS2; combined cytoplasmic and nuclear lysate; IP with anti-HIS (blot anti-FLAG) and the reciprocal IP with anti-FLAG (blot anti-HIS); protein A/G beads, 25 mM HEPES pH 7.2, 175 mM NaCl, 0.25% IGEPAL, 4°C
T1 sequence: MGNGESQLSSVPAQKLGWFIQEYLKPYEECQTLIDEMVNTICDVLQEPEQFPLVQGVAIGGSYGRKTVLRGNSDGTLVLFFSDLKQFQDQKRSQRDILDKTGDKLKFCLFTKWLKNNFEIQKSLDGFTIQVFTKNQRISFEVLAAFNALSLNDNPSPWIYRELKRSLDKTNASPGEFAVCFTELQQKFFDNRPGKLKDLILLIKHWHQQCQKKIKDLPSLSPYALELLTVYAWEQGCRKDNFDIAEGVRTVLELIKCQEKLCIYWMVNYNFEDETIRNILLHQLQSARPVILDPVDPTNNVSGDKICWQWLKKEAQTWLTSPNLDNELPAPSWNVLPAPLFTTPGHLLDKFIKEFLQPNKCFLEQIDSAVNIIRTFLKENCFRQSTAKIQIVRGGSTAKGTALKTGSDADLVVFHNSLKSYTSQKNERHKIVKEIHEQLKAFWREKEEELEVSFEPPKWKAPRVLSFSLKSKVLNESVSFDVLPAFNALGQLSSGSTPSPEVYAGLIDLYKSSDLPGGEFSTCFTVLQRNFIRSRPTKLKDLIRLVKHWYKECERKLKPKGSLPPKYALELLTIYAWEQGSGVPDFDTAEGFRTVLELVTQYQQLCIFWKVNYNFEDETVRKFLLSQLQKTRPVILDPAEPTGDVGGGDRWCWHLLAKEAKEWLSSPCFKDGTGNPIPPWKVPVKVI

[2] = target: T2, FLAG-tagged OAS2 (recombinant human 2′-5′-oligoadenylate synthetase 2, wild type) (human) (UniProt P29728); assay: as above
T2 sequence: T1 sequence

binding [1]: binds
B1: FLAG-tagged OAS2 (recombinant human 2′-5′-oligoadenylate synthetase 2, wild type) (enzyme, UniProt P29728-2 1-687, looked up)
chain: T1 sequence
notes: human 2′-5′-oligoadenylate synthetase 2 (OAS2); residues D408, D410, D481, C668, F669, K670 are named; The N-terminal position of FLAG is stated only for the CAFAKA mutant; also called FLAG-OAS2; wild-type OAS2; source: HEK293T, transfected (pcDNA3); in lysate for the co-immunoprecipitation

binding [2]: binds
B2: His-tagged OAS2 (recombinant human 2′-5′-oligoadenylate synthetase 2, wild type) (enzyme, UniProt P29728-2 1-687)
chain: T1 sequence
